Our source for the binding values is paper PMC8508133.

By UniProt entry, the sequences of proteins in these tests, tags left out. Residues count along the entry.
UniProt P31266: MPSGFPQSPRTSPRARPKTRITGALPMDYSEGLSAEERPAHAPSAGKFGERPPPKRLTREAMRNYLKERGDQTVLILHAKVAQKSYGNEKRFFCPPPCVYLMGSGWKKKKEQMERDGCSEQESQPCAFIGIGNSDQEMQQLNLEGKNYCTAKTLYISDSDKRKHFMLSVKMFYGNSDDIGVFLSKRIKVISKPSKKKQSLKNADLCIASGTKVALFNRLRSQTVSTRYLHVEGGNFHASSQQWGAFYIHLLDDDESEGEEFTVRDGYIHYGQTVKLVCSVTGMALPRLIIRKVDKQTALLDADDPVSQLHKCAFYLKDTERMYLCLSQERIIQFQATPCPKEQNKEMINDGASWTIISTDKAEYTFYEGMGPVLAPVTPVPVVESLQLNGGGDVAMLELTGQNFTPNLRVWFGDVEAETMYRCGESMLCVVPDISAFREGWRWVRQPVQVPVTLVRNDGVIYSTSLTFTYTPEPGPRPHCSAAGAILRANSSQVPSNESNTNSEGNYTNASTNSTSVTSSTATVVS
UniProt P46531, residues 1761-2555: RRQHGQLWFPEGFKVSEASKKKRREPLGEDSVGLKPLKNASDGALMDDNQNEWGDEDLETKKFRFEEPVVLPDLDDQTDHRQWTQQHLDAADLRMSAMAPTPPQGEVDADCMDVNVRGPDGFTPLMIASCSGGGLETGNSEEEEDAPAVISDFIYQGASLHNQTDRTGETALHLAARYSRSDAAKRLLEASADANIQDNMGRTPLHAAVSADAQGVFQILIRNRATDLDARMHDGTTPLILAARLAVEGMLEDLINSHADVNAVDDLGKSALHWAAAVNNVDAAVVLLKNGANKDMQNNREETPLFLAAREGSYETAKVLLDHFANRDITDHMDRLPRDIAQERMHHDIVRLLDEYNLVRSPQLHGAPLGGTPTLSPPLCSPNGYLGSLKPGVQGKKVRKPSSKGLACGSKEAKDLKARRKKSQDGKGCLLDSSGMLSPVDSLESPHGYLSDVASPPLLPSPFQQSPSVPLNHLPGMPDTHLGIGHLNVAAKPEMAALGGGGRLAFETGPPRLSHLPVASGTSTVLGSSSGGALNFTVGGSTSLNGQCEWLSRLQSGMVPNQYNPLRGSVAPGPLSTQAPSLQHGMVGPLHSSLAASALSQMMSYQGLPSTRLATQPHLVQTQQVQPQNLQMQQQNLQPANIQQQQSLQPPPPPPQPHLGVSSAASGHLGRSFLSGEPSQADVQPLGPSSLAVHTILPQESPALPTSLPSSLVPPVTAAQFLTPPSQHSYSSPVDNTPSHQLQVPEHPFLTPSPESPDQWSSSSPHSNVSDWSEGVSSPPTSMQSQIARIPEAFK

These are yes or no findings as the source states them, for the method shown. Binding seen in cells or lysates may run through a third protein. Some entries that bind do so weakly or less than the wild type. Sequences can lack the tags named with a protein.

The target in this assay is Flag-tagged RBPJ (UniProt P31266). The experiment in a line: co-IP; HEK293 cells cotransfected with Flag- and GFP-tagged constructs, lysed 24 h later in CHAPS lysis buffer (10 mM CHAPS, 50 mM Tris-HCl pH 7.8, 150 mM NaCl); agarose-conjugated anti-Flag (M2) at 4 °C overnight, 6 to 8 washes; co-precipitated proteins detected with anti-GFP.

For “GFP-tagged NICD (human NOTCH1 intracellular domain, aa 1761-2555) (from UniProt P46531 1761-2555) (domain or fragment)”, the binding result is reported as “binds”.

B1: RITA (protein, UniProt Q96K30 1-269)
chain: MKTPVELAVSGMQTLGLQHRCRGGYRVKARTSYVDETLFGSPAGTRPTPPDFDPPWVEKANRTRGVGKEASKALGAKGSCETTPSRGSTPTLTPRKKNKYRPISHTPSYCDESLFGSRSEGASFGAPRMAKGDAAKLRALLWTPPPTPRGSHSPRPREAPLRAIHPAGPSKTEPGPAADSQKLSMGGLHSSRPLKRGLSHSLTHLNVPSTGHPATSAPHTNGPQDLRPSTSGVTFRSPLVTSRARSVSISVPSTPRRGGATQKPKPPWK
Regarding B1, the binding result was “binds”.

B2: PTF1a (protein, UniProt Q9QX98 1-324)
chain: MDAVLLEHFPGGLDTFPSPYFDEEDFFTDQSSRDPLEDSDELLGDEQAEVEFLSHQLHEYCYRDGACLLLQPAPSAAPHALAPPPLGDPGEPEDNVSYCCDAGAPLAAFPYSPGSPPSCLAYPCAAVLSPGARLGGLNGAAAAAAARRRRRVRSEAELQQLRQAANVRERRRMQSINDAFEGLRSHIPTLPYEKRLSKVDTLRLAIGYINFLSELVQADLPLRGSGAGGCGGPGGSRHLGEDSPGNQAQKVIICHRGTRSPSPSDPDYGLPPLAGHSLSWTDEKQLKEQNIIRTAKVWTPEDPRKLNSKSFDNIENEPPFEFVS
Consider B2, for which the binding result is “binds”.

B3: GFP-tagged KyoT2 (protein, UniProt P97447-2 1-194)
chain: MSEKFDCHYCRDPLQGKKYVQKDGRHCCLKCFDKFCANTCVDCRKPISADAKEVHYKNRYWHDNCFRCAKCLHPLASETFVSKDGKILCNKCATREDSPRCKGCFKAIVAGDQNVEYKGTVWHKDCFTCSNCKQVIGTGSFFPKGEDFYCVTCHETKFAKHCVKCNKGLVKAPVWWPMKDNPGTTTASTAKNAP
For B3, the binding result is on record as “binds”.
